# Assay results from PubChem BioAssay AID2685 (National Center for Advancing Translational Sciences (NCATS), 2010).
# This is one part of the list. These are further read-outs of the screen, such as a control signal, another cell line or another target. No call is given for them. The list favours compounds with an active or inconclusive main result. Potencies come from curve fits of mixed quality, noted in brackets.
# Assay: qHTS Assay for Lipid Storage Modulators in Drosophila S3 Cells;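 for cell number change: cells counted by Cell Tracker Red CMTPX staining in the red channel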
# Conditions: BODIPY lipid droplet fluorescence, 18-24 h; for cell number change: measured here: cell count max response, cells fed with added oleic acid
# Method in brief: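 Drosophila S3 cells loaded with oleic acid (400 uM, as added) and compounds at several concentrations; lipid droplets imaged by 488-nm laser-scanning cytometry, 500–530 nm intensity and object ratio to cell channel. Percent activity normalized to 20 uM Triacsin C.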
# [1] = measured here: lipid fluorescence (Fed channel) AC50, cells fed with added oleic acid
# [2] = measured here: cell number channel AC50, cells fed with added oleic acid
Structure (SMILES),cell number change,AC50 [1],AC50 [2]
Cc1cccc(OCC(=O)Nc2ccc3c(c2)C(=O)NC3=O)c1,15.6%,"29.1 µM [falling, single point]",–
N[C@@H](Cc1ccc(O)c(I)c1)C(=O)O,-30.7%,–,"4.61 µM [falling, full curve, poor fit]"
Cc1ccc(SC(C)C(=O)Nc2ccccc2C(=O)N2CCOCC2)cc1 (stereo not given),-19.8%,"29.1 µM [falling, single point]",–
O=C(CCCN1C(=O)/C(=C/c2cccs2)SC1=S)NNC(=O)c1cccnc1,-2.43%,"1.3 µM [rising, full curve]",–
CCOCCCNC(=O)/C(C#N)=C/c1ccc(-c2ccc(S(=O)(=O)N3CCOCC3)cc2)o1,6.35%,"6.51 µM [rising, single point]",–
O=C1COc2ccc(C(=O)COC(=O)CCSc3ccc(Cl)cc3)cc2N1,–,–,"1.03 µM [falling, full curve]"
Cc1cc(C)nc(N2C(=O)CC(C(C)c3ccccc3)C2=O)n1 (stereo not given),-41.9%,"3.26 µM [falling, full curve]","5.8 µM [falling, full curve]"
CN=c1scc(-c2ccccc2Br)n1/N=C/c1ccc[nH]1,–,"29.1 µM [rising, single point]",–
CCc1nnc(NC(=O)Cn2ccc(C(F)(F)F)n2)s1,-38%,–,"18.4 µM [falling, single point]"
CCCCNC(=O)/C=C/c1cccs1,35.3%,"29.1 µM [rising, single point]","20.6 µM [rising, single point]"
COCC1CCN(C(=O)c2oc3c(F)cccc3c2C)C1 (stereo not given),-9.39%,"6.51 µM [falling, single point]",–
NC(=O)Cc1nc(-c2ccc(Br)cc2)cs1,77.6%,"0.651 µM [rising, full curve, poor fit]","0.651 µM [rising, full curve, poor fit]"
COCC(C)N1CCC(n2nccc2NC(=O)CCCc2ccccc2)CC1 (stereo not given),-4.58%,"29.1 µM [rising, single point]",–
CC(NC(=O)CSc1nc2ccccc2n1CCC#N)c1ccc(F)cc1 (stereo not given),31.4%,"0.651 µM [rising, full curve, poor fit]","11.6 µM [rising, partial curve, poor fit]"
O=C(CNS(=O)(=O)c1ccc(Br)s1)N1CCN(c2ncccn2)CC1,253%,"23.1 µM [rising, partial curve]","23.1 µM [rising, partial curve]"
COc1cccc(CNC2CCCCCCC2)c1OC,4.4%,"6.51 µM [rising, single point]",–
Nc1ccc(S(=O)(=O)Nc2ccccn2)cc1,31.6%,"13 µM [rising, partial curve, poor fit]","16.4 µM [rising, partial curve, poor fit]"
COc1ccc(C(=O)NCC(=O)OCc2c(Cl)cccc2Cl)cc1OC,83.9%,–,"16.4 µM [rising, partial curve]"
Clc1ccccc1OCc1nc(-c2ccccn2)no1,-0.742%,"4.61 µM [rising, single point]",–
CNC(=O)NC(=O)C(C)OC(=O)c1c2c(nc3ccccc13)/C(=C/c1cccs1)CC2 (stereo not given),-35%,"0.411 µM [falling, full curve]","1.03 µM [falling, full curve]"
CCOc1c(Br)cc(C(N)=O)cc1OCc1ccccc1,-11.6%,"3.66 µM [rising, partial curve, poor fit]",–
COc1cc2ccccc2cc1C(=O)Nc1nnc(-c2ccncc2)o1,3.02%,"0.013 µM [rising, full curve, poor fit]",–
CN1CCN(S(=O)(=O)c2ccc(NC(=O)COc3ccccc3Cl)cc2)CC1,-1.75%,–,–
CN1CCCC(OC(=O)COc2ccc(Br)cc2)C1 (stereo not given),-33.2%,"11.6 µM [falling, partial curve]","1.64 µM [falling, full curve]"
Clc1ccc(-c2cc3ccccc3nc2N2CCOCC2)cc1,10.4%,"1.46 µM [rising, partial curve]","0.411 µM [rising, full curve, poor fit]"
COc1ccc(C(CNC(=O)COc2ccc(C)c(C)c2)N2CCCCC2)cc1 (stereo not given),18.5%,"29.1 µM [rising, single point]",–
CN(C)c1nc(C#N)nc(N2CCOCC2)n1,6.76%,"29.1 µM [rising, single point]",–

# Structural class, those above with a furan ring, fused or not.
Structure (SMILES),cell number change,AC50 [1],AC50 [2]
CCOCCCNC(=O)/C(C#N)=C/c1ccc(-c2ccc(S(=O)(=O)N3CCOCC3)cc2)o1,6.35%,"6.51 µM [rising, single point]",–
COCC1CCN(C(=O)c2oc3c(F)cccc3c2C)C1 (stereo not given),-9.39%,"6.51 µM [falling, single point]",–
